Measurements taken from PubChem BioAssay AID2685 (National Center for Advancing Translational Sciences (NCATS), 2010).
This is one part of the list. The main result of the screen is listed elsewhere. These columns were measured beside it and carry no call. Compounds called inactive in the main read-out are mostly missing here. Potencies come from curve fits of mixed quality, noted in brackets.

Assay: qHTS Assay for Lipid Storage Modulators in Drosophila S3 Cells;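 as to cell number change: cells counted by Cell Tracker Red CMTPX staining in the red channel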
Settings: BODIPY lipid droplet fluorescence, 18-24 h; for cell number change: measured here: cell count max response, cells fed with added oleic acid
In short: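 Drosophila S3 cells loaded with oleic acid (400 uM, as added) and compounds at several concentrations; lipid droplets imaged by 488-nm laser-scanning cytometry, 500–530 nm intensity and object ratio to cell channel. Percent activity normalized to 20 uM Triacsin C.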

[1] = measured here: lipid fluorescence (Fed channel) AC50, cells fed with added oleic acid
[2] = measured here: cell number channel AC50, cells fed with added oleic acid

| SMILES | cell number change [%] | AC50 [1] | AC50 [2] |
| --- | --- | --- | --- |
| COc1ccc(-c2nc(NCCCN(C)C)c3ccccc3n2)cc1 | -16.1 | – | – |
| Cc1cccc(N(CC(=O)N2CCCCCC2)S(C)(=O)=O)c1 | -5.82 | 14.6 µM [falling, single point] | – |
| C/C(=N\NC(=O)c1cccc(S(=O)(=O)Nc2ccccc2Cl)c1)c1ccc(-n2ccnc2)cc1 | 26.9 | 0.092 µM [rising, full curve, poor fit] | – |
| CSc1nc2cc(Oc3cccc(Cl)c3Cl)c(Cl)cc2[nH]1 | -55.8 | 16.4 µM [falling, single point] | 16.4 µM [falling, single point] |
| CCN1C(=O)CC(N2CCOCC2)C1=O (stereo not given) | -101 | 29.1 µM [falling, single point] | 25.9 µM [falling, partial curve] |
| Cc1ccc(NC(=O)CSc2ccc(S(=O)(=O)N3CCCC3)cn2)cc1F | 44.7 | 4.11 µM [falling, single point] | 29.1 µM [rising, single point] |
| CC(=O)Nc1cccc(NC(=O)CCn2cnc3cc(C)c(C)cc32)c1 | 33.9 | 1.3 µM [rising, full curve, poor fit] | 0.00461 µM [rising, full curve, poor fit] |
| CCOC(=O)c1ccc(NC(=S)NCCc2ccc(F)cc2)cc1 | -15 | 16.4 µM [falling, single point] | – |
| CCOC(=O)Cc1csc(NC(=O)CCCCCN2C(=O)c3ccccc3C2=O)n1 | -40.4 | – | 29.1 µM [falling, single point] |
| COc1ccccc1C(C#N)c1cccc(Cl)n1 (stereo not given) | 13.8 | 6.51 µM [rising, single point] | 5.8 µM [rising, single point] |
| CS(=O)(=O)N1CCN(C(=S)NCc2ccc(Cl)cc2)CC1 | 12.1 | – | 3.26 µM [falling, single point] |
| CC(CC(=O)N1CCN(c2ccccc2)CC1)S(=O)(=O)c1ccc2c(c1)NC(=O)CO2 (stereo not given) | -41.6 | – | 32.6 µM [falling, single point] |
| COC(=O)C[N+](C)(C)C/C=C\c1ccccc1 | 4.19 | 0.259 µM [falling, full curve, poor fit] | – |
| CCO[C@H]1OC(C(=O)NC2CC2)=C[C@@H](c2coc3ccccc3c2=O)[C@@H]1CCCO | -0.23 | 0.731 µM [falling, single point] | – |
| c1ccc(-c2nn3c(Cn4cnc5ccccc54)nnc3s2)cc1 | – | 0.731 µM [rising, single point] | 2.31 µM [rising, partial curve] |
| COc1ccc(/C=N\NC(=O)c2ccccc2Br)cc1COc1ccccc1 | -8.65 | 29.1 µM [falling, single point] | – |
| Cc1cc(C)c2nc(N3C(=O)C(O)=C(C(=O)c4ccco4)C3c3cccc(O)c3)sc2c1 (stereo not given) | -33.3 | 29.1 µM [falling, single point] | 32.6 µM [falling, single point] |
| CCCCP(=O)(CCCC)c1ccccc1C(=O)O | 7.86 | 0.651 µM [rising, full curve, poor fit] | – |
| Cn1nnnc1Sc1ncnc2scc(-c3ccc([N+](=O)[O-])cc3)c12 | -36.6 | 0.58 µM [falling, partial curve, poor fit] | 8.2 µM [falling, partial curve] |

| SMILES | cell number change [%] | AC50 [1] | AC50 [2] |
| --- | --- | --- | --- |
| COc1ccc(-c2cc(C(=O)NCCCn3ccnc3)no2)cc1OC | 5.73 | – | 0.82 µM [rising, partial curve] |
| COCc1ccc(O)c2ncccc12 | 1.05 | – | – |
| CC(c1ccccn1)N(C)C(=O)c1ccc2nc(Cc3ccccc3F)oc2c1 (stereo not given) | -10.4 | 0.731 µM [rising, partial curve, poor fit] | – |
| CC(=O)c1ccc(Nc2nc3ccccc3nc2NS(=O)(=O)c2cccs2)cc1 | -17.7 | 3.26 µM [falling, partial curve] | – |
| Cc1ccccc1NC(=O)NNC(=O)COc1ccc2ccccc2c1 | -26.9 | – | – |
| COc1ccc(/C=C2\SC(=S)N(CC(=O)OCC(=O)Nc3ccc([N+](=O)[O-])cc3OC)C2=O)cc1 | 18.2 | 2.31 µM [rising, full curve, poor fit] | 6.51 µM [rising, single point] |
| FC(F)(F)c1cccc(N2CCN(C(=S)NC3CCCCC3)CC2)c1 | 7.92 | 0.0731 µM [rising, full curve, poor fit] | – |
| S=c1nc(C23CC4CC(CC(C4)C2)C3)[nH][nH]1 | 23.5 | 6.51 µM [rising, single point] | – |
| CCOc1ccc(S(=O)(=O)N2CCC(C(=O)NC3CCCCC3)CC2)cc1 | 29.5 | 20.6 µM [rising, partial curve] | – |
| CSc1cc(C)n(-c2ccccc2C)c(=S)c1C(C)=O | – | 18.4 µM [falling, partial curve] | – |
| Cc1ccc2c(C)c(C(=O)N3CCN(Cc4ccc5c(c4)OCO5)CC3)oc2c1C | -0.763 | – | – |
| O=C1OCC2=C1C(c1ccc(F)cc1)Sc1ccccc1N2 (stereo not given) | -56.2 | – | 14.6 µM [falling, single point] |
| Oc1c(C(c2cccs2)N2CCN(c3ccccc3)CC2)ccc2cccnc12 (stereo not given) | 15.3 | – | 0.146 µM [falling, full curve, poor fit] |
| Cc1cc(C(=O)OCC(=O)NC(C)(C)C)c2ccccc2n1 | -7.87 | – | 0.92 µM [rising, partial curve] |
| O=S(=O)(NCc1ccccc1)NCc1ccccc1F | -28.9 | – | 0.116 µM [falling, full curve] |
| CCN(CC)C(=S)NC(=O)c1ccc(OC)c(Br)c1 | 6 | 18.4 µM [rising, single point] | – |
| Cc1nc(SCC(=O)NCc2ccccc2)c2c(=O)n(C)c(=O)n(C)c2n1 | – | 0.58 µM [rising, single point] | 0.731 µM [rising, single point] |
| Cc1no[n+]([O-])c1COc1ccccc1/C=C1\NC(=S)NC1=O | 70.3 | 6.51 µM [rising, single point] | 8.2 µM [rising, partial curve] |
| O=C(c1ccccc1Oc1ccccc1)N1CCN(c2ccccc2F)CC1 | – | 6.51 µM [rising, partial curve] | 2.91 µM [rising, single point] |

Individual results from above:
Entry of Cc1ccccc1NC(=O)NNC(=O)COc1ccc2ccccc2c1 under cell number change [%]: -26.9
Entry of COc1ccc(/C=C2\SC(=S)N(CC(=O)OCC(=O)Nc3ccc([N+](=O)[O-])cc3OC)C2=O)cc1 under AC50 [1]: 2.31 µM [rising, full curve, poor fit]

Remaining list, next part.

| SMILES | cell number change [%] | AC50 [1] | AC50 [2] |
| --- | --- | --- | --- |
| Cc1cc2c(c(=O)n1CCc1ccccc1)C(c1ccco1)C(C#N)=C(N)O2 (stereo not given) | 63.4 | 1.3 µM [rising, full curve] | 0.517 µM [rising, full curve, poor fit] |
| O=C1c2ccccc2C(=O)c2c(NCc3cccnc3)cccc21 | -3.31 | – | – |
| O=C(CS(=O)(=O)c1ccc(F)cc1)N1CCN(c2ccccc2)CC1 | 40.7 | – | 14.6 µM [rising, single point] |
| CC(=O)c1cccc(NC(=O)COC(=O)CCc2ccc(S(=O)(=O)N3CCOCC3)cc2)c1 | -6.83 | – | – |
| Cc1ccc(OCC(=O)N(C)CC(=O)NCc2ccco2)c(Br)c1 | 26.9 | – | – |
| OCCc1c[nH]c2ccc(OCc3ccccc3)cc12 | -38.1 | 3.26 µM [falling, full curve, poor fit] | 9.2 µM [falling, partial curve, poor fit] |
| CC(C(=O)NCCC1=CCCCC1)c1ccc([N+](=O)[O-])cc1 (stereo not given) | -31.6 | 18.4 µM [falling, single point] | 0.058 µM [falling, full curve] |
| CCOc1ccc(N2C(=O)c3ccc(C(=O)OCc4c(C)noc4C)cc3C2=O)cc1 | 3 | – | – |
| CCCc1ccc(S(=O)(=O)N2CCN(Cc3ccco3)CC2)cc1 | -13.3 | 23.1 µM [rising, single point] | – |
| COc1ccccc1CNC(=O)C(CC(C)C)NC(=O)C1CCC(C)CC1 (stereo not given) | -33.9 | 4.11 µM [falling, single point] | 2.31 µM [falling, full curve, poor fit] |
| O=S(=O)(NCC1CCCO1)c1ccc(-c2ccc(S(=O)(=O)NCC3CCCO3)cc2)cc1 (stereo not given) | -39.6 | 16.4 µM [falling, single point] | 13 µM [falling, single point] |
| O=C1/C(=C\c2cc(Br)cc(Br)c2O)SC(=S)N1Cc1ccccc1 | -28.2 | 1.84 µM [falling, partial curve, poor fit] | 2.31 µM [falling, full curve, poor fit] |
| COc1ccc(Nc2nc(-c3ccccc3)c3ccccc3n2)cc1 | 6.96 | 2.91 µM [rising, full curve, poor fit] | – |
| COc1ccc(S(=O)(=O)Nc2ccccc2C)cc1 | 60.2 | 16.4 µM [rising, partial curve] | 14.6 µM [rising, partial curve] |
| CCOC(=O)c1ccccc1NC(=O)CN(c1cccc(OC)c1)S(C)(=O)=O | -36.6 | 29.1 µM [falling, single point] | 1.84 µM [falling, partial curve, poor fit] |
| Cc1cccc(NC(=O)[C@H](Cc2c[nH]c3ccccc23)NC(=O)[C@@H]2Cc3ccccc3CN2)c1 | 1.01 | 3.66 µM [falling, full curve] | – |
| COc1cc(NC(C)CCCN)c2ncccc2c1 (stereo not given) | 28.7 | 29.1 µM [falling, single point] | – |
| Cc1ccc(NC(=O)CSc2ccc3c(c2)OCCO3)nc1 | -18.7 | 0.651 µM [falling, single point] | – |
